Measurements taken from publication PMC12412611.
These are yes or no findings as the source states them, for the method shown. Binding seen in cells or lysates may run through a third protein. Some entries that bind do so weakly or less than the wild type. Tags and fused reporters may be left off the sequences shown.

Sequences of proteins named here, by UniProt entry; tags and fusion partners are left off.
UniProt Q96CV9: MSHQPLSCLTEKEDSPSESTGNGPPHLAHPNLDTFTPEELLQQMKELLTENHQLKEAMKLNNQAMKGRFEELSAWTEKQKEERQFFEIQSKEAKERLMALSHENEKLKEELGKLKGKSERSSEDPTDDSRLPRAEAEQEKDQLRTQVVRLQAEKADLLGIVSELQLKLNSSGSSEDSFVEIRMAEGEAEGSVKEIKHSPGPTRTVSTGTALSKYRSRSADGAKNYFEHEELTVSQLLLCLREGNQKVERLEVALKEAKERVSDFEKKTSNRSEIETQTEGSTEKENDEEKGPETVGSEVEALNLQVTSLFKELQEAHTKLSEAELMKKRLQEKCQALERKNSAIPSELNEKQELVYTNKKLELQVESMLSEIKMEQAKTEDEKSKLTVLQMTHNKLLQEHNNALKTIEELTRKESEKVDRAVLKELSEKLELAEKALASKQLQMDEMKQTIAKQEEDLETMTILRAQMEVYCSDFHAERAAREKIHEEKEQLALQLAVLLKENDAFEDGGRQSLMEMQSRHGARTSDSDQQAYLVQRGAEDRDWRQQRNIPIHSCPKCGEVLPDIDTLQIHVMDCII

Legend:
[1] = target: T1, RIG-I (retinoic acid-inducible gene I), overexpressed, tag not told for these experiments (UniProt O95786); test: co-IP; HEK293T co-transfected with the plasmids; IP lysis buffer with PMSF; anti-Flag beads at 4 °C overnight; immunoblot; some panels with CQ (40 µM, 6 h) and with or without co-expressed GSDMD-CT
T1 sequence: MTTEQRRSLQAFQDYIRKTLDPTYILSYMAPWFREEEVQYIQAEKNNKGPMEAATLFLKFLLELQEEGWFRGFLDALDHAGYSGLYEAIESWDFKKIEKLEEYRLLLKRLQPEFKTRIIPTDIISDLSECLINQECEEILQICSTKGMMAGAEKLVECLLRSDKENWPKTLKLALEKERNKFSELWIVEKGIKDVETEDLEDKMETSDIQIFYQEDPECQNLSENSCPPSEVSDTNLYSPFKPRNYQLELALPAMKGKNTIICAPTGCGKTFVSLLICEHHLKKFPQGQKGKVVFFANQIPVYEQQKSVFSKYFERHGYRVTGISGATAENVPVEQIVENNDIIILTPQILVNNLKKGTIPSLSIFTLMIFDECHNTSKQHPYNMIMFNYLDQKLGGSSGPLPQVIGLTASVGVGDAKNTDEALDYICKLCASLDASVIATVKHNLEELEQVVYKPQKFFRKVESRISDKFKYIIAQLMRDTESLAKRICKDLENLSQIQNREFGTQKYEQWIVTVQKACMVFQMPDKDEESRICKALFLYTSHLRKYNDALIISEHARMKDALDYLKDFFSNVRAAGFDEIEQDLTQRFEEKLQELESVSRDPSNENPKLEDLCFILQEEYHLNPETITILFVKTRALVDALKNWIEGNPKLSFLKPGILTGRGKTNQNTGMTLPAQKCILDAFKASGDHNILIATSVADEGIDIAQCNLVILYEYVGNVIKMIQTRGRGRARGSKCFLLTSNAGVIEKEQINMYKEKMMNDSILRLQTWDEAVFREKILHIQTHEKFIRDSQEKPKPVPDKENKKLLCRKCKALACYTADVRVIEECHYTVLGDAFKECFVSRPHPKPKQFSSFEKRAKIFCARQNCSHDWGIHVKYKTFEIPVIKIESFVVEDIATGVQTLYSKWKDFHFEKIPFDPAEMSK

[2] = target: T2, TBK1 (tank-binding kinase), overexpressed, tag not told for these experiments (UniProt Q9UHD2); test: as above
T2 sequence: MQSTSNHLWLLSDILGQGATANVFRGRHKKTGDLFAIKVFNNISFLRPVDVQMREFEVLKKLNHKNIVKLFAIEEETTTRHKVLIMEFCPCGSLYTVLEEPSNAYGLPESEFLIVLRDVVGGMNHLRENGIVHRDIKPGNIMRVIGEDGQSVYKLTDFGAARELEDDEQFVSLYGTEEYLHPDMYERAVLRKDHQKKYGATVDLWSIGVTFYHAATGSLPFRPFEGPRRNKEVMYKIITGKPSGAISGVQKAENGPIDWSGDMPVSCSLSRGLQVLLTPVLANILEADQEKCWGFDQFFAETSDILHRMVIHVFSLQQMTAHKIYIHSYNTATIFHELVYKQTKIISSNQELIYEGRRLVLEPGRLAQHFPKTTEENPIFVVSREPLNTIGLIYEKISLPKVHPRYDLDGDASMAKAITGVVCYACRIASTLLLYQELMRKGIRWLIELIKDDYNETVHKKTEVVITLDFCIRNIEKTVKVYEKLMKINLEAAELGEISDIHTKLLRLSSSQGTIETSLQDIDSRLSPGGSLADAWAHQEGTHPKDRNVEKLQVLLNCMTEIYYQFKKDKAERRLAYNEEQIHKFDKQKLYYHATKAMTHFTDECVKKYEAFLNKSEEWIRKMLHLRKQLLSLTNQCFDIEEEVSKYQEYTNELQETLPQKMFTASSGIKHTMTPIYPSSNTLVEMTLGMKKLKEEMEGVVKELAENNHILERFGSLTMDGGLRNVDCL

Row | Substance | binding [1] | binding [2]
1 | OPTN (from UniProt Q96CV9 1-577) | binds | binds
2 | p62/SQSTM1 (from UniProt Q13501 1-440) |  | binds
